Data taken from PubChem BioAssay AID504834 (National Center for Advancing Translational Sciences (NCATS), 2011).
About 22,000 (6.9%) of roughly 320,000 compounds were called active. The inconclusive results got no clear call from the source; some entries with a clear call stand among them for comparison. Calls come from the whole dose curve; as a rule, active = well fitted inhibition curve with a large enough effect; inconclusive = small, poorly fitted or top-dose-only effect, or another doubt; inactive = no such curve, though single readings can be large or run the other way. Potencies of inconclusive entries are doubtful fits and often do not repeat.

assay: Primary qHTS for delayed death inhibitors of the malarial parasite plastid, 96 hour incubation; details: P. falciparum luciferase reporter growth; series mostly up to 28.7 µM
In short: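 Erythrocytes infected with luciferase-expressing P. falciparum were dispensed at 2% hematocrit and 0.05% parasitemia (final), then incubated with compounds 96 hours at 37 C in 5% CO2. Luminescence after detection reagent addition reported growth.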
Potency is the fitted concentration of half-maximal effect.

SMILES | Potency
CCN(CC)CC(C(=O)N(CC)CC)P(=O)(c1ccccc1)c1ccccc1 (stereo not drawn) | inconclusive: 5.22 µM [inhibitor, partial curve, poor fit]
COc1ccccc1CCc1nnc(CCC(=O)NC(C)Cc2ccsc2)o1 (stereo not drawn) | inconclusive: 18.5 µM [inhibitor, single point]
Cn1cc2c([N+](=O)[O-])cc([N+](=O)[O-])cc2n1 | inconclusive: 9.28 µM [inhibitor, single point]
S=C(NCc1ccco1)N1CCOCC1 | inactive
Brc1ccc2nc3c(n2c1)CCCC3 | inactive
NCCSc1c(-c2ccccc2)[nH]c2ccccc12 | inconclusive: 18.5 µM [inhibitor, single point]
CCSc1nc(O)cc(=O)n1CC | inactive
COc1ccc(C(=O)Nc2cc(Cl)cc(Cl)c2)c(OC)n1 | inactive
Cn1cnc2c(NCc3ccco3)ncnc21 | inconclusive: 0.329 µM [inhibitor, full curve, poor fit]
Cc1ccc(C(=O)N/C(=C/c2cccs2)C(=O)NCc2ccco2)cc1 | active: 0.522 µM
Clc1ccc(CNC2CCN(Cc3ccccc3)CC2)cc1 | inconclusive: 18.5 µM [inhibitor, single point]
CCC(C(=O)NC1CCCC1)n1c(SCc2cccc(C)c2)nc2ccncc21 (stereo not drawn) | inconclusive: 11.7 µM [inhibitor, single point]
CCOC(=O)C(C)n1cnc2c(oc3ccccc32)c1=O (stereo not drawn) | inconclusive: 0.0828 µM [inhibitor, full curve, poor fit]
COc1ccc(OC)c(/C(O)=C/C(=O)C(=O)Nc2cc(C)ccc2OC)c1 | inconclusive: 0.0029 µM [inhibitor, full curve, poor fit]
Cc1ccc2nc(SCC(=O)N3c4ccccc4CC3C)c(C)cc2c1 (stereo not drawn) | inconclusive: 11.7 µM [inhibitor, partial curve, poor fit]
CCOCCCNC(=S)N1CCC(NC(=O)C23CC4CC(CC(C4)C2)C3)CC1 | inactive
Cc1ccc(/C=N/NC(=O)c2c(-c3ccccc3)noc2C)o1 | inactive
CCc1nnc(NC(=O)C2CC(=O)N(c3ccc(C)cc3)C2)s1 (stereo not drawn) | inconclusive: 13.1 µM [inhibitor, partial curve]
CCCCOc1ccc(C(=O)Nc2cccc(-n3cnnn3)c2)cc1OC | active: 9.28 µM
Cc1csc(C(=O)O)c1-n1cccc1 | inconclusive: 18.5 µM [inhibitor, single point]
O=C(Cc1c[nH]c2ccccc12)Nc1ccccc1N1CCOCC1 | inconclusive: 7.38 µM [inhibitor, partial curve]
Cc1ccc(C(=O)NC(=S)NNC(=O)c2ccccc2)cc1 | inconclusive: 0.0329 µM [inhibitor, full curve, poor fit]
CCCC(O)(CCC)C(=O)NN(C(=O)OC)c1ccccc1 | inactive

For reference, part of the list above:
SMILES | Potency
Brc1ccc2nc3c(n2c1)CCCC3 | inactive
NCCSc1c(-c2ccccc2)[nH]c2ccccc12 | inconclusive: 18.5 µM [inhibitor, single point]

The results go on.

SMILES | Potency
COc1ccc(C2c3ccc(O)cc3Oc3ncn4nc(-c5ccccn5)nc4c32)cc1OC (stereo not drawn) | inactive
Cc1cc2c(cc1[N+](=O)[O-])NC(CNC(C)C)CC2 (stereo not drawn) | inconclusive: 11.7 µM [inhibitor, single point]
Cc1cc(N2CCOCC2)ccc1/C=C1\NC(=O)N(Cc2ccccc2)C1=O | inconclusive: 0.0586 µM [inhibitor, partial curve, poor fit]
CC(OC(=O)c1ccc(-n2cnnn2)cc1)C(=O)Nc1ccccc1F (stereo not drawn) | inconclusive: 18.5 µM [inhibitor, single point]
CCOc1cccc(C(=O)Nc2ccc(N(CC)CC)cc2)c1 | inconclusive: 18.5 µM [inhibitor, single point]
CCOC(=O)c1ccc2ncc(-c3ccccc3)nc2c1 | inactive
COCCCNc1nc2nonc2nc1N1C[C@H]2CC[C@H]1C2 | inconclusive: 8.28 µM [inhibitor, partial curve]
O=C(NCC(c1ccco1)N1CCN(c2ccc(F)cc2)CC1)c1cccs1 (stereo not drawn) | inconclusive: 18.5 µM [inhibitor, single point]
Cc1ccc(C(=O)COC(=O)CNC(=O)c2ccco2)cc1 | inconclusive: 8.28 µM [inhibitor, partial curve, poor fit]
Cc1ccc(NC(=O)CSCC(=O)Nc2ccccc2N2CCCC2)cc1 | inactive
CCc1cc(C(=O)N2CCCC(C(=O)c3cccc4ccccc34)C2)n(C)n1 (stereo not drawn) | inconclusive: 10.4 µM [inhibitor, single point]
CC(=O)NC1=NN(C(C)=O)C(C)(CCS(=O)(=O)c2ccc(Cl)c(Cl)c2)S1 (stereo not drawn) | inconclusive: 14.7 µM [inhibitor, partial curve, poor fit]
O=[N+]([O-])c1sccc1CS(=O)(=O)c1ccccc1 | inactive
COc1ccc(NC(=O)C2CCN(S(=O)(=O)c3ccc4c(c3)CC(C)N4C(C)=O)CC2)c(OC)c1 (stereo not drawn) | inconclusive: 11.7 µM [inhibitor, single point]
O=C(c1ccc(N2CCOCC2)c([N+](=O)[O-])c1)N1CCCCC1 | inactive
CC1CC(C)CN(C(=O)c2ccc3c(c2)OCCO3)C1 (stereo not drawn) | active: 4.65 µM
COC(=O)C1=C(C)N(CCc2cc(OC)c(OC)c(OC)c2)C(=O)N[C@H]1c1cccs1 | inconclusive: 11.7 µM [inhibitor, partial curve]
COc1ccc(C(=O)C[n+]2ccc(N(C)C)cc2)cc1 | inconclusive: 3.7 µM [inhibitor, partial curve, poor fit]
O=C(COc1ccccc1)NC(=S)Nc1ccc(Br)cn1 | inconclusive: 18.5 µM [inhibitor, single point]
COc1ccccc1N1C[C@@H]2C[C@@H](c3ccco3)N3CCC[C@@]23C1=O | inconclusive: 18.5 µM [inhibitor, single point]
CN(C)Cc1c(C(=O)N/N=C/c2cccc(OCc3c(F)cccc3Cl)c2)nnn1-c1nonc1N | inconclusive: 18.5 µM [inhibitor, single point]
COC(=O)NNC(=O)CCCOc1ccc(Cl)cc1Cl | inactive
C/C=C(/C)C(=O)O[C@@H]1[C@H](OC(=O)C=C(C)C)c2c(ccc3ccc(=O)oc23)OC1(C)C | inconclusive: 18.5 µM [inhibitor, single point]

SMILES | Potency
CC(=O)c1ccc(OCCCC(=O)N(CCC2=CCCCC2)c2c(N)n(Cc3ccccc3)c(=O)[nH]c2=O)cc1 | inconclusive: 5.22 µM [inhibitor, partial curve]
COc1ccccc1N1CCN(CCCNc2cc(=O)n(C)c(=O)n2C)CC1 | inconclusive: 19 µM [inhibitor, single point]
CN(Cc1ccc(Cl)cc1)C(=O)c1cc(S(=O)(=O)N2CCOCC2)ccc1N1CCCC1 | inconclusive: 10.4 µM [inhibitor, partial curve, poor fit]
COc1ccc(CCNC(=O)C(=O)NCC2OCCN2S(=O)(=O)c2ccc(OC)c(OC)c2)cc1OC (stereo not drawn) | inconclusive: 0.415 µM [inhibitor, full curve, poor fit]
Cc1ccc(O)c(NC(=O)CN(C)S(=O)(=O)c2ccc(Cl)cc2)c1 | inconclusive: 14.7 µM [inhibitor, partial curve, poor fit]
NS(=O)(=O)c1ccc(N=Nc2c(O)c(C(=O)O)cc3ccccc23)cc1 | active: 10.4 µM
Cc1ccc(-c2nc(S(=O)(=O)c3ccccc3)c(SCC(=O)NCC3CCCO3)o2)cc1 (stereo not drawn) | inconclusive: 16.5 µM [inhibitor, single point]
O=C(CN(Cc1ccc(Cl)cc1)C(=O)CNS(=O)(=O)c1ccc(F)cc1)NCC1CCCO1 (stereo not drawn) | inconclusive: 18.5 µM [inhibitor, single point]
COc1ccc(-c2c3c(=O)n(C)c(=O)n(C)c3cn2-c2ccccc2)cc1 | inconclusive: 7.38 µM [inhibitor, partial curve]
CCN(CCCNC(=O)c1cn(CC)c2ccc(S(=O)(=O)N(C)C)cc2c1=O)c1cccc(C)c1 | inactive
O=C(OC[C@@H]1O[C@@](O)(COC(=O)c2cccnc2)[C@H](OC(=O)c2cccnc2)[C@H]1OC(=O)c1cccnc1)c1cccnc1 | inconclusive: 4.26 µM [inhibitor, full curve]
OCCC1CN(CC#Cc2ccccc2)CCN1Cc1ccccc1F (stereo not drawn) | active: 11.7 µM
Cc1cc(NC(=O)c2cc([N+](=O)[O-])cc([N+](=O)[O-])c2)no1 | inconclusive: 18.5 µM [inhibitor, single point]
CCCc1cc(=S)n2c([nH]c3ccccc32)c1C#N | inconclusive: 18.5 µM [inhibitor, partial curve, poor fit]
CCCC1CCC(C(=O)Nn2cnc3ccccc3c2=O)CC1 (stereo not drawn) | active: 2.08 µM
CCC1CCC/C1=N\NC(=O)c1cc(C)[nH]n1 (stereo not drawn) | inactive
Oc1ccccc1/C=N/NC(=S)NCCc1ccccc1 | inconclusive: 0.586 µM [inhibitor, full curve]
Cc1ccc(-c2cc(C(=O)Nc3nn[nH]n3)c3ccccc3n2)c(C)c1 | inconclusive: 0.657 µM [inhibitor, partial curve]
CC(=O)Nc1ccccc1C(=O)OCc1ccccc1F | inconclusive: 0.0037 µM [inhibitor, full curve]
COc1ccc(C2(C)NC(=O)N(CC(=O)Nc3ccc(C)cc3Br)C2=O)cc1OC (stereo not drawn) | active: 3.7 µM
COc1ccc([C@@H]2CC=C(C(=O)O)[C@H](c3cccc(Cl)c3)N2S(=O)(=O)c2ccc(Cl)cc2)cc1 | inconclusive: 16.5 µM [inhibitor, single point]
Cc1cc(F)ccc1NS(=O)(=O)c1cccc2nsnc12 | inactive

Part of the list above in order of SMILES length, smallest number first:
SMILES | Potency
NCCSc1c(-c2ccccc2)[nH]c2ccccc12 | inconclusive: 18.5 µM [inhibitor, single point]
OCCC1CN(CC#Cc2ccccc2)CCN1Cc1ccccc1F (stereo not drawn) | active: 11.7 µM
Cc1ccc(-c2cc(C(=O)Nc3nn[nH]n3)c3ccccc3n2)c(C)c1 | inconclusive: 0.657 µM [inhibitor, partial curve]
